The text below walks through data of publication PMC10009101.

Amino acid sequences for entries named in this document (tags omitted).
UniProt P60484: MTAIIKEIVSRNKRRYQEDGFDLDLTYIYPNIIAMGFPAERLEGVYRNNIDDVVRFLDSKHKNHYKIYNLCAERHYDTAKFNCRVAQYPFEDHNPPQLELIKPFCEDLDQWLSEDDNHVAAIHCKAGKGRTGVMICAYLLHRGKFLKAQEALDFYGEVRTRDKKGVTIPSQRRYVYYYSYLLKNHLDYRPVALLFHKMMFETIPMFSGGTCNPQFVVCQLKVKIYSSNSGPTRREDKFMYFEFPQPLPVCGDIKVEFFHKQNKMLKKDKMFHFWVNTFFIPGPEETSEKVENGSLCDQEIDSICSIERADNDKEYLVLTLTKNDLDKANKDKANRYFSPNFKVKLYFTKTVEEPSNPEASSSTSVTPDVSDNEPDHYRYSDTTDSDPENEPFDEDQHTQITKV
UniProt O94972: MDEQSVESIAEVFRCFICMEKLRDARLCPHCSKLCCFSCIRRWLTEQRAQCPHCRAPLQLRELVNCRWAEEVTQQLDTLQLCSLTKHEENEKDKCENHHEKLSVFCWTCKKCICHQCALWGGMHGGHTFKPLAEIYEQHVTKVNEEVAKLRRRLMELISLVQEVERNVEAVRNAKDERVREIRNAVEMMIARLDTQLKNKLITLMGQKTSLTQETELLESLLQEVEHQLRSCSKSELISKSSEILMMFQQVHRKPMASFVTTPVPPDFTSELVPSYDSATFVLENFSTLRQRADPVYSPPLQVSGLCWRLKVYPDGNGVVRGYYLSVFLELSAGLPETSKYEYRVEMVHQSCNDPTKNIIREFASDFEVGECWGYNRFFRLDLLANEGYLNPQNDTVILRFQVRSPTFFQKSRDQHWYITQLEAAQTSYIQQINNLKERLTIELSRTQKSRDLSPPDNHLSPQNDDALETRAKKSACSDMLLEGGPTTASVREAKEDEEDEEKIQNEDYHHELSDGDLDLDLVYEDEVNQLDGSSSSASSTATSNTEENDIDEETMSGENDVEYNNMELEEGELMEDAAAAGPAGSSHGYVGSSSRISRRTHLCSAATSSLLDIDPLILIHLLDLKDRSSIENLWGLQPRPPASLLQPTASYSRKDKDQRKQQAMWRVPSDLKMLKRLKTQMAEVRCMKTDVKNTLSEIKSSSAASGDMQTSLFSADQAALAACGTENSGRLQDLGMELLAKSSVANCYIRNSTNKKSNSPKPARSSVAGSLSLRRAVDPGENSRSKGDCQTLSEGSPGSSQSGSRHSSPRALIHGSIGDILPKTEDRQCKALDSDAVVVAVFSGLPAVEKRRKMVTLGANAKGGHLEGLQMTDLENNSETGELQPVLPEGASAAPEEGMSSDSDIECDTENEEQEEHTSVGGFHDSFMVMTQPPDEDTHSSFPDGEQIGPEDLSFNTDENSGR

Results are given in words; binding and its absence hold for the method and conditions named. In cells and extracts the contact can be indirect. Some results given as binding are weak or reduced against the parent protein; the word gives no strength.

For this assay, the target named is PTEN (human (endogenous in MOLT-4)) (UniProt P60484). The assay is described as follows: co-IP; MOLT-4 lysate in RIPA buffer (50 mM Tris-HCl pH 7.5, 150 mM NaCl, 1% NP-40, 1 mM EDTA, 0.25% sodium deoxycholate); 1 ug antibody (anti-PTEN or anti-TRIM37; IgG as negative control) overnight at 4°C, protein A/G Plus-agarose, five washes with RIPA, Western blot.

As for TRIM37 (from UniProt O94972 1-964), the binding entry is given as “binds”.
